The values below come from paper PMC8061361.

Protein sequences, listed by entry. Tags and fused reporters are not part of them. Lines headed by an entry give the natural chain unless they say otherwise; changes in a name come on top.
UniProt O95831: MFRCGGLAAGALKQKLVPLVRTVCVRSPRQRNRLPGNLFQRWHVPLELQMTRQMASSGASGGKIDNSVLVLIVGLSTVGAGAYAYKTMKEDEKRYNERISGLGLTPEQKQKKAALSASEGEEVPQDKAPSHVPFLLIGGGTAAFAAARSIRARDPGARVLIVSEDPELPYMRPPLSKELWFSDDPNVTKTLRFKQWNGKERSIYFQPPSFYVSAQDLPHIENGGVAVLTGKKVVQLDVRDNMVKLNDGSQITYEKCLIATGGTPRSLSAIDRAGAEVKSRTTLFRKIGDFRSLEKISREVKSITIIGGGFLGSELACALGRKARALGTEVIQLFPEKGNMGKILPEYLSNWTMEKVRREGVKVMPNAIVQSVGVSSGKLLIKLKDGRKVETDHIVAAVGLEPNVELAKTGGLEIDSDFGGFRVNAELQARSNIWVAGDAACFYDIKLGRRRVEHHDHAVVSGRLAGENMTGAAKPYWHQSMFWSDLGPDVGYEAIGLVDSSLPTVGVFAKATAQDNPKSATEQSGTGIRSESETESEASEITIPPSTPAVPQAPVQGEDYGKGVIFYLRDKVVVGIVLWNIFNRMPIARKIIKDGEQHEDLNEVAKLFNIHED

These are yes or no findings as the source states them, for the method shown. Binding seen in cells or lysates may run through a third protein. A result given as binding can be weak or reduced; the word gives no strength. Tags and fused reporters may be left off the sequences shown.

The target of test [1] is T1, V5-tagged OTUD1 C320A (inactivated mutant) (UniProt Q5VV17).
T1 sequence: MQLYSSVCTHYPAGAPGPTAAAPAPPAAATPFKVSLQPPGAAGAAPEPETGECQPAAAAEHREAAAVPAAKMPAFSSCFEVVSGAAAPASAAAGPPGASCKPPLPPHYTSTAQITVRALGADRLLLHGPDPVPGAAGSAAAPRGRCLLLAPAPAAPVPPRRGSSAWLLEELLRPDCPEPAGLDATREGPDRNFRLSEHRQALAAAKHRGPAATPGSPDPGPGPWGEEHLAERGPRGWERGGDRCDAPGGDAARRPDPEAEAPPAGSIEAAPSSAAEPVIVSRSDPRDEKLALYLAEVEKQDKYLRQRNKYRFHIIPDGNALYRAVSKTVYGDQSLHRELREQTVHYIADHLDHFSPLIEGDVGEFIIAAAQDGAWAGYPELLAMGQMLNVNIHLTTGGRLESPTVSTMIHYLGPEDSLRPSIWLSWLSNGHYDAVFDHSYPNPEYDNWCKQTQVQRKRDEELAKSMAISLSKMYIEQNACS
Nature of the test: co-IP; 293T cells cotransfected with tagged OTUD1 and tagged AIF; anti-Flag or anti-V5 magnetic beads, overnight at 4 °C; immunoblot.

In the next test the target is T2, V5-tagged OTUD1 (UniProt Q5VV17).
T2 sequence: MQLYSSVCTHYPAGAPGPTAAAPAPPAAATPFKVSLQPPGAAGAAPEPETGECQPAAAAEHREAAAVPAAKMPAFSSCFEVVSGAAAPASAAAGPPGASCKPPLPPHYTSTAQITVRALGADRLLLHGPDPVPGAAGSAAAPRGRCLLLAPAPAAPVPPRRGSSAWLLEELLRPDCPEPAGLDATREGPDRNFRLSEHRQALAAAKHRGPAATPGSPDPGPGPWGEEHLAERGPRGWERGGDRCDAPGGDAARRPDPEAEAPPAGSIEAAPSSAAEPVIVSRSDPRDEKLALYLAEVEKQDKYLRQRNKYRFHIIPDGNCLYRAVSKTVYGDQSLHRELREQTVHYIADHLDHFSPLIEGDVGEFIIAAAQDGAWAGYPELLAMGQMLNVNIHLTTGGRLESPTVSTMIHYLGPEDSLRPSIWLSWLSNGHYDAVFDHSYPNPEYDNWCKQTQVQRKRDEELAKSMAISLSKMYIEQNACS
The test is described as above.

Test [2] has as its target T3, Flag-tagged OTU deubiquitinase 1 (OTUD1) (UniProt Q5VV17).
T3 sequence: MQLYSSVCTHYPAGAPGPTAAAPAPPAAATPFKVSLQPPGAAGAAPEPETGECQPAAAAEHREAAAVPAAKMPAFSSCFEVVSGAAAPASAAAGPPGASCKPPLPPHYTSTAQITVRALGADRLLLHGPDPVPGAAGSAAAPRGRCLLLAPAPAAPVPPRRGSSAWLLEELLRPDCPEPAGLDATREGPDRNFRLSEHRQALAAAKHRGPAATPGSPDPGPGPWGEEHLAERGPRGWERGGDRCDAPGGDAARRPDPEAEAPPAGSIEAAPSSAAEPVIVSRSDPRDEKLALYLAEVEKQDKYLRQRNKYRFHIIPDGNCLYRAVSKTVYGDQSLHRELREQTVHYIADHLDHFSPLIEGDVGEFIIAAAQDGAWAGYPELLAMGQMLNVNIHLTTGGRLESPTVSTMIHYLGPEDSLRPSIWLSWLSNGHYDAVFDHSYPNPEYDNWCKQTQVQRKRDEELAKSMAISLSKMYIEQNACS
Nature of the test: pull-down; in vitro pulldown (legend: in vitro co-IP) with anti-Flag magnetic beads; GST-tagged protein purified from E. coli, preparation of the Flag-tagged protein not told.

Test [3] addresses Ala-rich domain of OTUD1 (truncated mutant). As to the kind of experiment: co-IP; co-IP with truncated mutants of OTUD1, AIF and DCAF10; cells, tags and beads only in Figures S3 and S7.

As to Myc-tagged AIF (from UniProt O95831), the binding entry (in test [1]; in the test with V5-tagged OTUD1) was “binds” in each case.

Regarding GST-tagged AIF (from UniProt O95831), in test [2], the binding entry is on record as “binds”.

B1: DCAF10 (co-IPs of Figure 6E-G and Figure S7; tag not told in the text) (protein, UniProt Q5QP82 1-559)
chain: MFPFGPHSPGGDGSAGAGAEEPTPHEGQAAATGPPSPLHPGADATHPPPPARSPRRPGAPSLSPAPRSGELGLPGAPESSTASAPGEPSPPSPPCRRPGPDCRAKSRGRHGLGAGLGGPGARLFGWLKERSLGRGLFVDPARDNFRTMTSLYGSIHPADSVYLSTRTHGAVFNLEYSPDGSVLTVACEQTEVLLFDPISSKHIKTLSEAHEDCVNNIRFLDNRLFATCSDDTTIALWDLRKLNTKVCTLHGHTSWVKNIEYDTNTRLLVTSGFDGNVIIWDTNRYTEDGCPHKKFFHTRFLMRMRLTPDCSKMLISTSSGYLLILHDLDLTKSLEVGSYPILRARRTTSSSDLTTSSSSSGPRVSGSPCHHSDSNSSEKHMSRASQREGVSPRNSLEVVTPEVLGESDHGNCITSLQLHPKGWATLLRCSSNSDDEECTCVYEFQEGAPVRPVSPRCSLRLTHYIEEANVGRGYIKELCFSPDGRMISSPHGYGIRLLGFDKQCSELVDCLPKEASPLRVIRSLYSHNDVVLTTKFSPTHCQIASGCLSGRVSLYQPKF
On to B1, for which the binding result in test [3] is “binds”.
